According to EP2961753B1, “STANNOUS FLUORESCENT PROBE” (priority 2014, dated 2015):

Tested on: KB cells
Assay: Fluorescence imaging of intracellular Sn^2+ (confocal laser scanning microscopy)
Assay type: cell-based

Structure (SMILES): CCN(CC)c1ccc2c(c1)Oc1cc(N(CC)CC)ccc1C21c2ccccc2C(=O)N1NC(=O)OC(C)(C)C [Compound R2]
- fluorescence emission without Sn^2+ present (KB cells stained with 10 µM probe at 37 °C for 30 min, λex 543 nm, emission 560-660 nm): scarcely fluorescence
- change of fluorescence after incubation with Sn^2+ (KB cells, probe for 30 min at 37 °C, then 50 µM Sn^2+ under the same conditions): significant fluorescence increasing
